PubChem BioAssay AID504774 | Drosophila RNAi Screening Center | 2011
The deposit covers about 23,000 reagents; shown is an unselected part of those with a known target gene and a result. 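Values are quantile-normalised luminescence on an arbitrary scale; higher means more cells surviving MMS.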 Names joined by + are all predicted targets of the reagent. Further read-outs or replicates are left out here.

Assay: 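Knock-downs that shift viability of MMS-exposed cells relative to untreated ones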 (primary screen)
System: Drosophila Kc167 cells
Knock-down reagent: long dsRNA against Drosophila genes, about 0.25 µg dsRNA per well
Timing: about 6 days: 3 days knock-down, then 3 days with or without MMS
Conditions: methyl methanesulphonate 0.004% (w/v) for 3 days after knock-down
Detection: 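Viability in wells given MMS, read as ATP luminescence, normalised by quantiles plate by plate and averaged across replicates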
Scale: mean viability with MMS and viability with MMS: higher = more surviving cells after MMS

{"gene": "CG14120", "PubChem SID": "SID104189916", "mean viability with MMS": 3.59e6, "viability with MMS, replicate 1": 4.14e6}
{"gene": "CG12054", "PubChem SID": "SID104194259", "mean viability with MMS": 2.78e6, "viability with MMS, replicate 1": 3.60e6}
{"gene": "CG12054", "PubChem SID": "SID104202494", "mean viability with MMS": 3.40e6, "viability with MMS, replicate 1": 3.87e6}
{"gene": "GstT1", "PubChem SID": "SID104186035", "mean viability with MMS": 3.59e6, "viability with MMS, replicate 1": 3.94e6}

The list goes on, starting with the last 2 of the part before.
{"gene": "CG12054", "PubChem SID": "SID104202494", "mean viability with MMS": 3.40e6, "viability with MMS, replicate 1": 3.87e6}
{"gene": "GstT1", "PubChem SID": "SID104186035", "mean viability with MMS": 3.59e6, "viability with MMS, replicate 1": 3.94e6}
{"gene": "elg1", "PubChem SID": "SID104190021", "mean viability with MMS": 3.47e6, "viability with MMS, replicate 1": 3.89e6}
{"gene": "CG14440", "PubChem SID": "SID104197725", "mean viability with MMS": 2.94e6, "viability with MMS, replicate 1": 3.52e6}
{"gene": "CG14440", "PubChem SID": "SID104202365", "mean viability with MMS": 3.50e6, "viability with MMS, replicate 1": 4.10e6}
{"gene": "CG14440", "PubChem SID": "SID104202366", "mean viability with MMS": 3.56e6, "viability with MMS, replicate 1": 4.29e6}
{"gene": "Pex6 + Hao", "PubChem SID": "SID104185889", "mean viability with MMS": 3.44e6, "viability with MMS, replicate 1": 3.81e6}
{"gene": "Pex6 + Hao", "PubChem SID": "SID104186496", "mean viability with MMS": 3.43e6, "viability with MMS, replicate 1": 3.80e6}
{"gene": "TTLL4B", "PubChem SID": "SID104180428", "mean viability with MMS": 3.27e6, "viability with MMS, replicate 1": 3.50e6}
{"gene": "Schip1", "PubChem SID": "SID104182643", "mean viability with MMS": 3.60e6, "viability with MMS, replicate 1": 4.46e6}
{"gene": "Ssrp", "PubChem SID": "SID104184450", "mean viability with MMS": 3.18e6, "viability with MMS, replicate 1": 3.74e6}
{"gene": "CG17378", "PubChem SID": "SID104182408", "mean viability with MMS": 3.59e6, "viability with MMS, replicate 1": 4.07e6}
